Measurements from “University of Dundee, Small-Polar-MMV Screening Library” (2021), ChEMBL document CHEMBL3988442.

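Growth of Mycobacterium tuberculosis over 4 days (cholesterol / DPPC medium with tyloxapol); the read-out is not stated. Tested at 500 µM. Higher reads as more growth inhibition (inferred: compounds with an IC50 in retests scored well above the rest). About 18,000 compounds were tested under these conditions; 5% (about 900) showed 50% or more at least once.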

The filed quantity is “Percent Effect” (%).
The record does not define 0% and 100%; most values in the screen are far below 50% and negative numbers occur (in some assays of this library far below -100).
The compounds are a random part of those screened.

| # | Compound | percent effect |
|---|---|---|
| 1 | `CC1(CO)CCCN1` (stereo not shown) | 2.584% |
| 2 | `Cc1noc(Cl)c1CC(=O)N1CCN(C)CC1C` (stereo not shown) | -17.34% |
| 3 | `CCn1ccnc1CN1CCC(=O)NCC1C` (stereo not shown) | -11.86% |
| 4 | `CCOC(=O)NCCNC(=O)c1ccc(O)c(Cl)c1` | 19.76% |
| 5 | `COc1ccccc1CCNC(=O)CN1CC(O)C1` | -20.72% |
| 6 | `COCC(C)NS(=O)(=O)c1cccs1` (stereo not shown) | -1.722% |
| 7 | `Cc1nnc(SCCCNC(=O)c2nn(C)cc2Cl)s1` | 21.52% |
| 8 | `CCC(C(=O)Nc1ncc(C)[nH]1)N1CCCC1=O` (stereo not shown) | -0.2127% |
| 9 | `CC(C)CC(C)CN1CCN(CCS(C)(=O)=O)CC1` (stereo not shown) | -11.68% |
| 10 | `CN(Cc1cccc(C#N)c1)Cc1ccnc(N)c1` | 30.29% |
| 11 | `Cc1noc(C)c1CC(=O)N1CCC(CC(N)=O)CC1` | -10.04% |
| 12 | `COc1cc(C(=O)NC[C@@H](O)c2ccc(C)cc2)on1` | 61.93% |
| 13 | `CN(C)S(=O)(=O)NC(CCO)c1cccs1` (stereo not shown) | 3.624% |
| 14 | `O=C(CCc1ccccn1)Nc1ccc2[nH]nnc2c1` | -6.745% |
| 15 | `CN(Cc1cccnc1)Cc1cc(C#N)cs1` | 47.57% |
| 16 | `CC(C)(C)OC(=O)NCC1CC(C(N)=O)=NO1` (stereo not shown) | -6.247% |
| 17 | `O=C(CN(CCO)C1CC1)NC1CCN(C2CC2)CC1` | 2.617% |
| 18 | `CC(C)OCCN(CC(N)=O)C(C)C` | 18.63% |
| 19 | `CN(C)CCOC1CCCNC1` (stereo not shown) | -9.124% |
| 20 | `CS(=O)(=O)CCS(=O)(=O)CC=Cc1ccccc1` | -2.282% |
| 21 | `CCNC(=O)c1cc(-c2ccc(F)cc2)n[nH]1` | 69.54% |
| 22 | `CC(=O)c1cc(C(=O)NC2CCC(=O)NC2)ccc1C` (stereo not shown) | -11.75% |
| 23 | `O=C(NC[C@@H]1C[C@H](F)CN1)c1ccc2ccccc2n1` | 17.25% |
| 24 | `Cn1nc(C(N)=O)cc1C(F)(F)F` | 13.2% |
| 25 | `Cn1c(=O)n(CC(=O)NC2CC2)c2ccccc21` | -3.499% |
| 26 | `CNC(=O)CN(C)C1CCCc2ccccc21` (stereo not shown) | -3.769% |
| 27 | `Cc1ccc(C)c(S(=O)(=O)NC2CCS(=O)(=O)C2)c1` (stereo not shown) | 12.59% |
| 28 | `O=C(NCc1ccon1)c1ccc(Br)c(O)c1` | -14.46% |
| 29 | `COc1cccc(Nc2ncnc(N)n2)c1` | 6.127% |
| 30 | `CN(C)CC1(O)CCCN(C(=O)c2n[nH]c(N)c2Cl)C1` (stereo not shown) | -9.692% |
| 31 | `COc1ccc(Br)c(S(=O)(=O)NCCCN)c1` | 13.73% |
| 32 | `O=C(Nc1ccncc1)C1CCCO1` (stereo not shown) | -2.478% |
| 33 | `CCc1ccsc1C(N)=O` | -12.36% |
| 34 | `CCn1cc(S(=O)(=O)NCc2cccnc2)cn1` | 1.437% |
| 35 | `CC(C)c1noc(CCC(=O)NC2CC2)n1` | 5.457% |
| 36 | `COc1ccc(NC(=O)CC2COCCN2)c(C)c1` (stereo not shown) | -6.887% |
| 37 | `CCCNC(=O)c1cccc(CN)c1` | 2.574% |
| 38 | `CCNCc1cc(OC)c(OCC(N)=O)c(OC)c1` | 1.936% |
| 39 | `CCN(CC)C(=O)COC(=O)c1c(C)nsc1N` | -12.28% |
| 40 | `CCCn1cnnc1CNCC(=O)Nc1cnccn1` | 0.3006% |
| 41 | `O=S(=O)(c1cccnc1)N1CCOCC1` | 2.985% |
| 42 | `Cc1c[nH]c(CN2CCCC2c2nc(C)n[nH]2)n1` (stereo not shown) | -3.565% |
| 43 | `Cc1cc(C)n2nc(CC(=O)NCC(F)(F)F)nc2n1` | -5.597% |
| 44 | `Cc1ccccc1NC(=O)CCN1CCC(CCO)C1` (stereo not shown) | 4.13% |
| 45 | `CNCC1COc2ccccc2O1` (stereo not shown) | -12.41% |
| 46 | `COC[C@@H]1CCCN1Cc1ccc(N(C)C)nc1` | -3.809% |
| 47 | `CC(C)NC(=O)CN1CC(Oc2ccccc2)C1` | 10.68% |
| 48 | `NC(=O)C1(CNCc2cccc(Br)c2)CCOCC1` | 29.49% |
| 49 | `CN(CC(N)=O)Cc1cccc(OCC(F)(F)F)c1` | 39% |
| 50 | `NC1CCN(C(=O)C2CCCC2)C1` (stereo not shown) | 8.011% |
| 51 | `O=C(c1ccc(Br)o1)N1CCN(Cc2ccco2)CC1` | 99.55% |
| 52 | `CC(C)OCCN1CCC(O)CC1` | -11.94% |
| 53 | `CC(C)N1CCN(C(C)C(=O)NC2CC2)CC1` (stereo not shown) | -2.313% |
| 54 | `CC(=O)Nc1ccc(C(=O)NCc2ccncc2)cc1` | 2.346% |
| 55 | `CS(=O)(=O)CCN1C[C@H](c2ccccc2)[C@@H](N)C1` | 2.342% |
| 56 | `O=C(Cc1cccc(O)c1)NCCN1CC=CC1` | 0.6775% |
| 57 | `CCOC(=O)Cn1nc(C)c(CN)c1C` | -1.27% |
| 58 | `Cc1noc(CCNC(=O)c2cnc(C)c(Br)c2O)n1` | 2.137% |
| 59 | `OCC(c1cccc(Cl)c1)N1CCNCC1` (stereo not shown) | 9.21% |
| 60 | `O=C(c1cscn1)N1CCOC(C(F)F)C1` (stereo not shown) | -23.02% |
| 61 | `Cc1cc(C)cc(C(O)Cn2ccnc2S(C)(=O)=O)c1` (stereo not shown) | 9.468% |
| 62 | `NCCOCCS(N)(=O)=O` | -6.296% |
| 63 | `CCNS(=O)(=O)C1CCN(Cc2cc(F)cc(F)c2)C1` (stereo not shown) | 3.766% |
| 64 | `Fc1ccc(NCC2CCC3(CC2)OCCO3)nc1` | 77.02% |
| 65 | `CC(CCN(C)C)NC(=O)Nc1ccc(N(C)C)nc1` (stereo not shown) | 0.8865% |
| 66 | `OCCNCCNCc1ccc(-c2cccc(Cl)c2)o1` | 77.49% |
| 67 | `O=C(CCN1CCCC1CO)NCc1ccccc1Cl` (stereo not shown) | 80.07% |
| 68 | `CC(Cn1cncn1)Nc1ncccc1F` (stereo not shown) | -16.04% |
| 69 | `c1ccc(COCc2nc(C3CCCCN3)no2)cc1` (stereo not shown) | 38.64% |
| 70 | `N#Cc1cccc(C2CNCCO2)c1` (stereo not shown) | 26.42% |
| 71 | `COc1cccc(C(O)c2nccn2C)c1` (stereo not shown) | 23.88% |
| 72 | `CS(=O)(=O)N1CCC(N)C1` (stereo not shown) | -34.69% |
| 73 | `Cc1n[nH]c(C)c1CN1CCCC2(CCNCC2)CC1` | 0.6391% |
| 74 | `COc1ccc(Cl)cc1C(=O)N1CCn2cnnc2C1` | -17.22% |
| 75 | `N#CC1COCCN1C(=O)c1ccc(Cl)cn1` (stereo not shown) | 15.2% |
| 76 | `CC1=CCN(C(=O)c2ccsc2)CC1` | 56.71% |
| 77 | `O=C(CCN1CCC[C@H]1CO)N1CCc2ccccc21` | -1.611% |
| 78 | `CCCS(=O)(=O)N(C)CC(=O)N1CCC(C)CC1` | 5.194% |
| 79 | `CCN(CCN1CCCCCC1)C(=O)c1cnc[nH]1` | -8.316% |
| 80 | `CC1C(=O)CCCN1C(=O)OC(C)(C)C` (stereo not shown) | -2.404% |
| 81 | `Brc1cncc(NCCOCC2CCCO2)c1` (stereo not shown) | 29.5% |
| 82 | `CCN(Cc1nc(N)nc(N(C)C)n1)CC1CCOC1` (stereo not shown) | -2.104% |
| 83 | `NC(=O)c1cnc(N)s1` | 2.056% |

For reference, 8 entries once more:

{"compound": "CCN(Cc1nc(N)nc(N(C)C)n1)CC1CCOC1", "stereo": "stereo not shown", "percent effect": -2.104}
{"compound": "CCOC(=O)NCCNC(=O)c1ccc(O)c(Cl)c1", "percent effect": 19.76}
{"compound": "CC(CCN(C)C)NC(=O)Nc1ccc(N(C)C)nc1", "stereo": "stereo not shown", "percent effect": 0.8865}
{"compound": "CN(C)S(=O)(=O)NC(CCO)c1cccs1", "stereo": "stereo not shown", "percent effect": 3.624}
{"compound": "CN(CC(N)=O)Cc1cccc(OCC(F)(F)F)c1", "percent effect": 39}
{"compound": "Cc1ccccc1NC(=O)CCN1CCC(CCO)C1", "stereo": "stereo not shown", "percent effect": 4.13}
{"compound": "CN(C)CCOC1CCCNC1", "stereo": "stereo not shown", "percent effect": -9.124}
{"compound": "Cn1nc(C(N)=O)cc1C(F)(F)F", "percent effect": 13.2}